Results published in patent US9493539B2, “Peptides associated with HLA-DR MHC class II molecules involved in autoimmune diseases” (LONDON HEALTH SCIENCES CENTRE RESEARCH INC., priority 2003, dated 2016).
Square brackets hold non-standard residues; d marks the D form. Ends that are not written are not given here. Cit = NC(=O)NCCC[C@H](N)C(=O)O

System: anti-citrulline antibodies
Assay: ELISA detection of anti-citrulline antibodies in human serum for diagnosis of RA

For “[Cit][Cit]Y[Cit]G[Cit][Cit]S[Cit][Cit]S[Cit][Cit] [JED]”, the “correlation co-efficient with the commercial CCP kit” value (51 rheumatoid arthritis patients, human serum) was 0.48, the “Specificity (%)” value (Table 1, for rheumatoid arthritis, 48 patients with other rheumatic diseases) was 94% and the “Sensitivity (%)” value (Table 1, for rheumatoid arthritis, 74 RA patients) was 66%. For the same substance, the “Sensitivity (%)” value (Table 2, diagnosis of rheumatoid arthritis, 51 RA patients) was 71% and the “Specificity (%)” value (Table 2, diagnosis of rheumatoid arthritis, vs 49 psoriatic arthritis patients) was 98%.
